Measurements published in article PMC12140344.
Results are given in words; binding and its absence hold for the method and conditions named. Binding seen in cells or lysates may run through a third protein. Some entries that bind do so weakly or less than the wild type. For some of these results: Sequences can lack the tags named with a protein. Values belong to the binder of their own block, whether it stands above or below them.

Protein sequences, listed by entry. Tags and fused reporters are not part of them. Lines headed by an entry give the natural chain unless they say otherwise; changes in a name come on top. Residues count along the entry.
UniProt Q14258: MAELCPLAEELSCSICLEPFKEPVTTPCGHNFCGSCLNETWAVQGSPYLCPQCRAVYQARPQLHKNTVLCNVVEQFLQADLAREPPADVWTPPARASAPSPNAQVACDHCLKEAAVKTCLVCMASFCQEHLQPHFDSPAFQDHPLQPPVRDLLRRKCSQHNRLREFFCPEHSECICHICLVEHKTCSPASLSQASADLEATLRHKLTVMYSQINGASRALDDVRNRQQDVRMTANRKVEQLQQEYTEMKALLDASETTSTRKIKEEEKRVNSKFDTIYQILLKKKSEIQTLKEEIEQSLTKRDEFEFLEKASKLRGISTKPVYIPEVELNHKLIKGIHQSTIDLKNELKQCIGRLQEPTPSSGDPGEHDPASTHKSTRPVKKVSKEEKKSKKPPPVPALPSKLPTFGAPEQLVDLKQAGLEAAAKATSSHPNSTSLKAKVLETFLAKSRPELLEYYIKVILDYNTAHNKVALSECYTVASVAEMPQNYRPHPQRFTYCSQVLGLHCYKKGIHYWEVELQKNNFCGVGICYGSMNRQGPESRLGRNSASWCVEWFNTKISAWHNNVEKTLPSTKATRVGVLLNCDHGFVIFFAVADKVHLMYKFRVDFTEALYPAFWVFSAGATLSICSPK
HA‐△TRIM25 (mutant TRIM25 lacking amino acids 401–630): residues 1-400 of Q14258
TRIM25 C‐terminal domain (401‐630aa), HA‐TRIM25 truncated: residues 401-630 of Q14258

Key:
[1] = molecular target: tripartite motif‐containing 25 (TRIM25), endogenous in MIHA cells (human (endogenous in MIHA)) (UniProt Q14258); test: co-IP; immunoprecipitation from MIHA cells, endogenous proteins
[2] = molecular target: HA‐△TRIM25 (mutant TRIM25 lacking amino acids 401–630) (UniProt Q14258); test: co-IP; HEK293T (293T) cells co‐transfected with HA‐TRIM25 or HA‐△TRIM25 and Flag‐INSIG1, immunoprecipitation
HA‐TRIM25 (HEK293T) = HA‐TRIM25 (HEK293T) (UniProt Q14258); test: as above
[3] = molecular target: TRIM25 C‐terminal domain (401‐630aa), HA‐TRIM25 truncated (UniProt Q14258); test: co-IP; MIHA cells transfected with HA‐TRIM25 truncated plasmids and Flag‐INSIG1, immunoprecipitation

binding [1]: binds
B1: insulin‐induced gene 1 (INSIG1), endogenous in MIHA cells (protein, UniProt O15503 1-277)
chain: MPRLHDHFWSCSCAHSARRRGPPRASAAGLAAKVGEMINVSVSGPSLLAAHGAPDADPAPRGRSAAMSGPEPGSPYPNTWHHRLLQRSLVLFSVGVVLALVLNLLQIQRNVTLFPEEVIATIFSSAWWVPPCCGTAAAVVGLLYPCIDSHLGEPHKFKREWASVMRCIAVFVGINHASAKLDFANNVQLSLTLAALSLGLWWTFDRSRSGLGLGITIAFLATLITQFLVYNGVYQYTSPDFLYIRSWLPCIFFSGGVTVGNIGRQLAMGVPEKPHSD

binding [2]: no binding
binding (HA‐TRIM25 (HEK293T)): binds
B2: Flag‐INSIG1 (HEK293T) (protein, UniProt O15503 1-277)
chain: MPRLHDHFWSCSCAHSARRRGPPRASAAGLAAKVGEMINVSVSGPSLLAAHGAPDADPAPRGRSAAMSGPEPGSPYPNTWHHRLLQRSLVLFSVGVVLALVLNLLQIQRNVTLFPEEVIATIFSSAWWVPPCCGTAAAVVGLLYPCIDSHLGEPHKFKREWASVMRCIAVFVGINHASAKLDFANNVQLSLTLAALSLGLWWTFDRSRSGLGLGITIAFLATLITQFLVYNGVYQYTSPDFLYIRSWLPCIFFSGGVTVGNIGRQLAMGVPEKPHSD

binding [3]: binds
B3: Flag‐INSIG1 (MIHA) (protein, UniProt O15503 1-277)
chain: MPRLHDHFWSCSCAHSARRRGPPRASAAGLAAKVGEMINVSVSGPSLLAAHGAPDADPAPRGRSAAMSGPEPGSPYPNTWHHRLLQRSLVLFSVGVVLALVLNLLQIQRNVTLFPEEVIATIFSSAWWVPPCCGTAAAVVGLLYPCIDSHLGEPHKFKREWASVMRCIAVFVGINHASAKLDFANNVQLSLTLAALSLGLWWTFDRSRSGLGLGITIAFLATLITQFLVYNGVYQYTSPDFLYIRSWLPCIFFSGGVTVGNIGRQLAMGVPEKPHSD
